Experimental data as given in PubChem BioAssay AID2685 (National Center for Advancing Translational Sciences (NCATS), 2010).
The other results are listed elsewhere or left out. These are further read-outs of the screen, such as a control signal, another cell line or another target. No call is given for them. Most of these compounds were active or inconclusive in the main read-out, so they are no random draw. The note in brackets gives the kind of curve behind each potency; many fits are weak.

Test: qHTS Assay for Lipid Storage Modulators in Drosophila S3 Cells;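 on cell number change: cells counted by Cell Tracker Red CMTPX staining in the red channel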
Settings: BODIPY lipid droplet fluorescence, 18-24 h; for cell number change: measured here: cell count max response, cells fed with added oleic acid
In short: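 Drosophila S3 cells loaded with oleic acid (400 uM, as added) and compounds at several concentrations; lipid droplets imaged by 488-nm laser-scanning cytometry, 500–530 nm intensity and object ratio to cell channel. Percent activity normalized to 20 uM Triacsin C.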

[1] = measured here: lipid fluorescence (Fed channel) AC50, cells fed with added oleic acid
[2] = measured here: cell number channel AC50, cells fed with added oleic acid

SMILES	AC50 [1]	cell number change [%]	AC50 [2]
Nc1ncc(Br)cc1S(=O)(=O)Nc1cc(C(F)(F)F)cc(C(F)(F)F)c1	0.731 µM [falling, full curve]		
CC1CCC2(CC1)NC(=O)N(CC(=O)Nc1ccccc1-c1ccccc1)C2=O (centres undefined)		-0.79	6.51 µM [rising, single point]
C=C(C)C1Cc2cc3ccc(=O)oc3cc2O1 (centres undefined)	8.2 µM [rising, partial curve, poor fit]	5.25	
CN(CC(=O)Nc1nccs1)S(=O)(=O)c1ccc(F)cc1	18.4 µM [rising, partial curve]	91.1	16.4 µM [rising, single point]
Cc1ccc(-n2c(N)c(C(=O)N3CCN(C)CC3)sc2=S)cc1		-83.8	29.1 µM [falling, single point]
CCC1=NN2C(=N)/C(=C\c3cccn3-c3ccc(Cl)cc3)C(=O)N=C2S1	1.64 µM [rising, partial curve, poor fit]	0.301	
CC(C)(CO)NCc1ccccc1OCC(=O)Nc1ccccc1	0.517 µM [falling, full curve]	10.2	
Cc1nc2ccc(S(=O)(=O)NC(C(=O)Nc3nccs3)C(C)C)cc2s1 (centres undefined)	2.06 µM [rising, partial curve]		2.31 µM [rising, partial curve]
O=C(CSc1nc2[nH]ncc2c(=O)n1-c1ccccc1)c1ccc2c(c1)OCCO2	0.731 µM [rising, single point]		
O=C(CC(c1ccccc1)c1ccccc1O)NCc1ccccc1 (centres undefined)	0.291 µM [falling, partial curve]	-5.91	
CCCS(=O)(=O)N1CCCC(C(=O)NCCN(CC)CC)C1 (centres undefined)	29.1 µM [rising, partial curve, poor fit]	12.7	
CC1(c2ccccc2)NC(=O)N(CC(=O)Nc2ccccc2N2CCCCC2)C1=O (centres undefined)	14.6 µM [falling, single point]	-7.8	
COc1ccc(CNC(=O)C2CCC(CNc3c(N4CCC(C)CC4)c(=O)c3=O)CC2)cc1 (centres undefined)			0.00461 µM [falling, full curve, poor fit]
O=C(COC(=O)c1c2c(nc3ccccc13)/C(=C\c1cccs1)CCC2)Nc1ccccc1	2.59 µM [falling, full curve]	-37.8	3.66 µM [falling, full curve]
CCOC(=O)COn1c(=O)c(C)[n+]([O-])c2ccccc21	0.082 µM [rising, full curve, poor fit]	35.1	29.1 µM [rising, single point]
FC(F)(F)c1cccc(N2CCN(c3nnnn3-c3ccccc3)CC2)c1	23.1 µM [rising, single point]		
COc1ccccc1NC(=O)C(=O)NCc1ccncc1	29.1 µM [rising, partial curve, poor fit]	10.4	
Nc1ccc(-n2cc(-c3ccccc3)[nH]c2=S)cc1	29.1 µM [rising, single point]		
O=C(Nc1nc2ccccc2[nH]1)c1cccc(F)c1	0.0731 µM [falling, full curve, poor fit]	3.91	
O=C(CSc1ccccc1C(=O)O)NCC1CCCCC1		-25.7	

SMILES	AC50 [1]	cell number change [%]	AC50 [2]
CCc1nc(NCc2ccco2)c2oc3ccccc3c2n1		-7.69	
COc1ccc(-c2nn(-c3ccccc3)cc2/C=N/NS(=O)(=O)c2ccccc2)cc1	1.84 µM [rising, partial curve]	-8.47	3.66 µM [rising, single point]
COc1cc(Cl)c(C)cc1NC(=O)CSc1cc(Cl)ccc1Cl	10.3 µM [rising, partial curve]	5.8	
COc1cc(CC(NC(C)=O)C(=O)NC2CCN(C(=O)c3ccc(C)cc3)CC2)cc(OC)c1 (centres undefined)	5.17 µM [rising, single point]	-14.1	
Cn1c(=O)c2cc(S(=O)(=O)NCCC(=O)N3CC=C(c4ccccc4)CC3)ccc2n(C)c1=O	11.6 µM [rising, partial curve]	81.2	7.31 µM [rising, partial curve]
O=C(CCn1c(SCC(=O)NCc2ccco2)nc2ccccc2c1=O)NCCc1ccccc1	2.06 µM [rising, partial curve]	2.48	
CC(=O)N1N=C(c2cccc([N+](=O)[O-])c2)OC1c1cccc(Br)c1 (centres undefined)	0.092 µM [falling, full curve]	-47.9	
COc1cc(/C=C(/C#N)c2nc3ccccc3[nH]2)ccc1OCC(=O)Nc1ccccc1C(C)C	5.8 µM [falling, partial curve]	-78.4	8.2 µM [falling, partial curve]
CC(C)CCN=CC1=C(O)CC(c2ccccc2)CC1=O (centres undefined)	0.206 µM [rising, full curve]	29.8	0.164 µM [rising, full curve, poor fit]
Cc1ccc2[nH]c(=O)c(CN(CCCN(C)C)C(=O)Nc3ccc(Cl)cc3)cc2c1	6.51 µM [falling, single point]	23.6	
CCOc1cc(N2CCOCC2)c(OCC)cc1NC(=O)c1ccc(OC(C)C)cc1		-49.4	0.00517 µM [falling, full curve, poor fit]
O=S(=O)(NCCCO)c1ccc2c(c1)Cc1cc(S(=O)(=O)NCCCO)ccc1-2	29.1 µM [falling, single point]	-27	
Cc1cc(=O)oc(C)c1C(=O)N1CCc2c([nH]c3ccccc23)C1C(C)C (centres undefined)	0.00461 µM [falling, full curve, poor fit]	-17	
N=P(N1CCOCC1)(N1CCOCC1)C12CC3CC(CC(C3)C1)C2		-1.88	
CCOC(=O)c1c(C)[nH]c(C(=O)CSc2ccccc2)c1C		-34.8	16.4 µM [falling, single point]
O=C(OCC(=O)N1CCN(C(=O)c2ccco2)CC1)c1ccc(S(=O)(=O)N2CCCCC2)cc1	23.1 µM [falling, single point]	-6.31	
Cc1noc(C)c1CNCc1ccccc1	0.651 µM [rising, full curve, poor fit]		
Cc1nc(-c2ccc(Cl)cc2)sc1C1(C)CC(c2cccnc2)=NO1 (centres undefined)	7.31 µM [rising, partial curve]	31.5	4.61 µM [rising, full curve]
O=C(CNS(=O)(=O)c1ccc(F)cc1)N1CCCCCC1		15.7	
CCOc1ccc(N(CC(=O)NCc2ccc(F)cc2)C(=O)CCC(=O)Nc2nccs2)cc1		-1.35	

Three structures from above, ordered by length of the SMILES, smallest number first.
SMILES	AC50 [1]	cell number change [%]	AC50 [2]
CC(C)CCN=CC1=C(O)CC(c2ccccc2)CC1=O (centres undefined)	0.206 µM [rising, full curve]	29.8	0.164 µM [rising, full curve, poor fit]
Cc1ccc2[nH]c(=O)c(CN(CCCN(C)C)C(=O)Nc3ccc(Cl)cc3)cc2c1	6.51 µM [falling, single point]	23.6	
COc1ccc(CNC(=O)C2CCC(CNc3c(N4CCC(C)CC4)c(=O)c3=O)CC2)cc1 (centres undefined)			0.00461 µM [falling, full curve, poor fit]

Going on with the list.

SMILES	AC50 [1]	cell number change [%]	AC50 [2]
CCC(CC)c1nnc(NC(=O)C2CC(=O)N(CCc3ccc(F)cc3)C2)s1 (centres undefined)	0.58 µM [rising, single point]	7.26	
CN(C)c1ccc(C(=O)OCC(=O)NCCNC(=O)COC(=O)c2ccc(N(C)C)cc2)cc1		13	
CC(=O)NC(CC(=O)Nc1ccc2c(c1)OCCO2)c1ccccc1 (centres undefined)	29.1 µM [rising, single point]	20.3	
O=CNn1cnc2c(oc3nc(-c4ccccc4)cc(-c4ccco4)c32)c1=O		38.9	20.6 µM [rising, single point]
S=C1N(c2ccccc2)CN(CCN2CCOCC2)CN1c1ccccc1		-7.87	
CCCn1c(SCC(=O)c2c(N)n(C3CC3)c(=O)[nH]c2=O)nc2cc(S(N)(=O)=O)ccc21	4.61 µM [rising, full curve, poor fit]	0.775	
CC(C)(CNc1ccc(S(=O)(=O)C(F)(F)F)cc1[N+](=O)[O-])N1CCOCC1		3.78	
COc1cccc(N2CCN(C(=O)c3ccc4nc(N5CCC(C)CC5)sc4c3)CC2)c1	29.1 µM [falling, single point]	13.5	
N/C(=N\OC(=O)c1cccnc1)c1ccc(Cl)cc1Cl	29.1 µM [rising, single point]	22.1	
Cn1c(CC(=O)NNC(=O)c2ccccc2[N+](=O)[O-])nc2ccccc21	1.16 µM [rising, full curve]	15.4	
CN1CCC(=NNC(=O)CSCc2ccccc2)CC1		-38.3	32.6 µM [falling, single point]
COc1ccccc1C(=O)NCC(=O)OC(C)C(=O)NC(=O)NC1CCCCC1 (centres undefined)		53.3	23.1 µM [rising, single point]
Cc1ccc(-n2c(SCC(=O)N3CCCCC3)nc(O)cc2=O)cc1		-1.09	2.91 µM [falling, single point]
CCCNC(=O)CN1C(=O)COc2ccc(S(=O)(=O)N3CCCCCC3)cc21		52.8	29.1 µM [rising, single point]
COc1ccccc1Nc1c([N+](=O)[O-])cncc1[N+](=O)[O-]	23.1 µM [falling, partial curve]	-41	29.1 µM [falling, partial curve]
O=C(Nc1ccccc1)C(=O)c1c[nH]c2ccccc12	0.82 µM [falling, full curve]	-22	
CCc1ccc(-c2n[nH]c(=O)c3ccccc23)cc1		18.1	1.46 µM [rising, partial curve, poor fit]
COc1ccc(CCNCc2ccc(OCc3ccccc3)cc2)cc1	5.62 µM [falling, single point]	5.26	
CC1=C(C(=O)Nc2ccccc2)C(c2cccnc2)n2nc(-c3cccnc3)nc2N1 (centres undefined)		-2.27	
CCC(C)N(C(=O)c1csnn1)C(C(=O)NCc1ccc(F)cc1)c1ccco1 (centres undefined)	0.164 µM [rising, full curve, poor fit]	-2.79	
